{"source": "patent US20190321452A1", "about": "“THERAPEUTIC COMBINATION COMPRISING A PULMONARY SURFACTANT AND A STEROID FOR THE PROPHYLAXIS OF BPD” (CHIESI FARMACEUTICI S.p.A., priority 2018, published 2019)", "format_in_all_cases": "in vivo, lamb (sheep)", "key": {"[1]": {"system": "newborn lambs on mechanical ventilation", "test": "Lung physiology (MAP, V40/kg) in mechanically ventilated newborn lamb model", "conditions": "for volume at 40 cmH2O (V40/kg): tracheal instillation, 6 h, vs surfactant only animals"}, "[2]": {"system": "IL-1β mRNA", "test": "Lung mRNA evaluation for injury: IL-1β", "conditions": "budesonide 0.25 mg/kg in Curosurf 200 mg/kg, 6 h mechanical ventilation"}, "[3]": {"system": "IL-6 mRNA", "test": "Lung mRNA evaluation for injury: IL-6", "conditions": "6 h mechanical ventilation"}, "[4]": {"system": "MCP-1 mRNA", "test": "Lung mRNA evaluation for injury: MCP-1", "conditions": "6 h mechanical ventilation"}, "[5]": {"system": "mRNA for proinflammatory cytokines IL-1β, IL-6, and MCP-1", "test": "Lung mRNA for proinflammatory cytokines (group statement)", "conditions": "budesonide 0.04 mg/kg in Curosurf 200 mg/kg; large variations in the responses"}, "[6]": {"system": "ENaC mRNA", "test": "Lung mRNA: ENaC", "conditions": "all doses of budesonide (0.25, 0.1, 0.04 mg/kg); over surfactant only"}, "[7]": {"system": "SFTPB mRNA", "test": "Lung mRNA: SFTPB", "conditions": "any dose of budesonide; compared with surfactant only animals"}, "[8]": {"system": "SAA3 mRNA", "test": "Lung mRNA: SAA3", "conditions": "any dose of budesonide; compared with surfactant only animals"}, "[9]": {"system": "liver SAA3 mRNA", "test": "Liver mRNA responses to mechanical ventilation: SAA3", "conditions": "budesonide 0.1 mg/kg in Curosurf 200 mg/kg"}, "[10]": {"system": "liver MCP-1 mRNA", "test": "Liver mRNA responses to mechanical ventilation: MCP-1"}, "[11]": {"conditions": "budesonide 0.1 mg/kg in Curosurf 200 mg/kg"}, "[12]": {"conditions": "budesonide 0.25 mg/kg in Curosurf 200 mg/kg"}}, "note": "For at least one compound, name, drawing or mass did not settle the structure.", "data": [{"smiles": "CCCC1O[C@@H]2C[C@H]3[C@@H]4CCC5=CC(=O)C=C[C@]5(C)[C@H]4[C@@H](O)C[C@]3(C)[C@]2(C(=O)CO)O1", "note": "(stereo partly drawn) [Budesonide, budesonide]", "values": [{"measurement": "volume at 40 cmH2O (V40/kg)", "setting": "[1]; budesonide 0.04 mg/kg in Curosurf 200 mg/kg", "result": "significantly higher"}, {"measurement": "mean airway pressure requirements", "setting": "[1]; budesonide 0.04 mg/kg in Curosurf 200 mg/kg, positive trend", "result": "did not reach significance"}, {"measurement": "mean airway pressure requirements", "setting": "[1]; [11]", "result": "decreased"}, {"measurement": "volume at 40 cmH2O (V40/kg)", "setting": "[1]; [11]", "result": "significantly higher"}, {"measurement": "mean airway pressure requirements", "setting": "[1]; [12]", "result": "decreased"}, {"measurement": "lung mRNA for IL-1β", "setting": "[2]", "result": "decreased"}, {"measurement": "lung IL-6 mRNA", "setting": "[3]; [11]", "result": "decreased"}, {"measurement": "lung mRNA for IL-6", "setting": "[3]; [12]", "result": "decreased"}, {"measurement": "lung MCP-1 mRNA", "setting": "[4]; budesonide 0.1 mg/kg in Curosurf 200 mg/kg, p=0.06", "result": "strong trend to decrease"}, {"measurement": "lung mRNA for MCP-1", "setting": "[4]; [12]", "result": "decreased"}, {"measurement": "lung mRNA for proinflammatory cytokines", "setting": "[5]", "result": "slight trend to decrease"}, {"measurement": "lung ENaC mRNA", "setting": "[6]", "result": "further increased"}, {"measurement": "lung SFTPB mRNA", "setting": "[7]", "result": "no changes"}, {"measurement": "lung SAA3 mRNA", "setting": "[8]", "result": "no changes"}, {"measurement": "liver SAA3 mRNA", "setting": "[9]", "result": "decreased"}, {"measurement": "liver MCP-1 mRNA", "setting": "[10]; budesonide 0.1 mg/kg, non-injurious ventilation", "result": "decreased"}, {"measurement": "liver MCP-1 mRNA", "setting": "[10]; budesonide 0.25 mg/kg, injurious ventilation", "result": "decreased"}, {"measurement": "liver MCP-1 mRNA", "setting": "[10]; budesonide 0.25 mg/kg, non-injurious ventilation", "result": "decreased"}]}]}
